{
  "source": "patent US20130137767A1",
  "about": "“Methods and Compositions for Treating Arthritis with Docosahexaenoic Acid” (DSM IP ASSETS B.V., priority 2010, published 2013)",
  "format_in_all_cases": "in vivo, Male DBA/1O1aHsd mice",
  "key": {"[1]": {"tested_on": "Collagen-Induced Arthritis (CIA)", "assay": "CIA-EE (Example 1): paw, knee and six-joint histopathology", "conditions": "positive control, 0.1 mg/kg; day 45", "from_the_text": "(§1) Male DBA/1O1aHsd mice (3.5-4 weeks of age) were randomized by weight and enrolled in the study after a three day quarantine in which animals were fed the AlN-93G diet with a modified base fat: 1 part flax seed oil (flax), 9 parts hydrogenated coconut oil (HCOC) and 21 parts high-oleic safflower oil (HO-SAFF). 15 animals were enrolled per study group, with the exception of the No Disease control that had 4 animals. Study groups consisted of:\nThe appropriate ethyl esters were blended into the base diet to provide approximately 2500 and 5000 mg/kg polyunsaturated fatty acid (PUFA) per day. The human equivalent doses (HED) were approximately 12 g/day and 22 g/day, respectively. The 2500 mg/kg EE diets contained the following fat blend: 1 part flax, 12 parts HCOC and 23 parts HO-SAFF. The 5000 mg/kg EE diets contained a fat blend consisting of: 1 part flax, 5 parts HCOC and 20 parts HO-SAFF. All study diets provided a total of 7% fat. Animals were fed study diets for approximately 30 days prior to the first collagen injection at day 0 and remained on the diets until study termination (day 45). Animals in the No Disease control and Dexamethasone groups were fed the diet containing OA-EE. Following a second collagen injection on day 21, arthritis severity was scored daily. Blood samples were collected at day 21 and day 45. Joints, 6 per an animal, were collected for histology and pathology on day 45.\nPlacebo-treated diseased animals had histopathology changes, consistent with those seen in type II collagen induced arthritis, in most joints, with scores ranging from normal to severe. Microscopic alteration included infiltration of synovium and periarticular tissue with neutrophils and mononuclear inflammatory cells (inflammation), marginal zone pannus and bone resorption and cartilage damage (proteoglycan loss, chondrocyte death and collagen matrix destruction). Four-paw, knee and joint parameters were assigned a quantitative score 0=normal, 1=minimal, 2=mild, 3=moderate, 4=marked, 5=severe and a total score was determined per animal."}, "[2]": {"tested_on": "Collagen-Induced Arthritis (CIA)", "assay": "Collagen-Induced Arthritis, ethyl esters (CIA-EE, Example 1): clinical arthritis severity and incidence", "conditions": "positive control, 0.1 mg/kg; days 18-45", "from_the_text": "The anti-arthritic activity of DHA, DPAn6, DHA/DPAn6 (DHA S-oil ratio) and DHA/EPA (fish oil ratio) ethyl esters (EE) in a chronic mouse model of inflammation, Collagen-Induced Arthritis (CIA), was studied.\nas §1\nThe appropriate ethyl esters were blended into the base diet to provide approximately 2500 and 5000 mg/kg polyunsaturated fatty acid (PUFA) per day. The human equivalent doses (HED) were approximately 12 g/day and 22 g/day, respectively. […] Following a second collagen injection on day 21, arthritis severity was scored daily. […]\nData was analyzed and compared by one-way ANOVA using the Bonferroni post-test to compare treatment groups to respective placebo control and to make comparisons between treatment groups (GraphPad, Prism, Version 4.0). […]\nArthritis severity was assessed from day 18 to 45; a score of 0 represented an animal devoid of clinical arthritis symptoms and a score of 5 represented advanced clinical arthritis. […]"}, "[3]": {"tested_on": "Collagen-Induced Arthritis (CIA)", "assay": "CIA EE vs. TG (Example 2): paw, knee and six-joint histopathology", "conditions": "positive control, 0.1 mg/kg, day 45", "method": "(§2) Male DBA/1O1aHsd mice were enrolled, quarantined, and feed study diets following the protocols described in Example 1 (CIA-EE Study). EE and TG oils were blended into the base diet to provide 2500 mg/kg PUFA per day (HED approximately 12 g/day). A single dose of PUFA per day (HED approximately 5 g/day). The 1000 mg/kg DHA-EE dose was equivalent to the amount of DHA administered in the DHA/EPA-EE blend. The fat blend the 2500 mg/kg EE diets consisted of approximately: 1 part flax, 12 parts HCOC and 23 parts HO-SAFF; 1000 mg/kg EE diet: 1 part flax, 12 parts HCOC and 32 parts HO-SAFF; 2500 mg/kg DHASCO® oil diet: 1 part flax, 8 parts HCOC, 17 parts HO-SAFF and 15 parts soybean oil; 2500 mg/kg DHA-S oil diet: 1 part flax, 5 parts HCOC, 16 parts HO-SAFF and 6 parts soybean oil. 2500 mg/kg DHA/EPA (Nordic Naturals fish oil) diet: 1 part flax, 21 parts HCOC, 18 parts HO-SAFF and 13 parts soybean oil. The monounsaturate control animals received a fat blend of 1 part flax, 7 parts HCOC and 25 parts HO-SAFF. All study diets provided a total of 7% fat. Animals in the No Disease control and Dexamethasone groups were fed the diet containing OA-EE. Mice received collagen injections on day 0 and day 21, as described previously. Blood samples were collected at day 21 and day 45. At day 45, joints were collected for histology and pathology. Placebo-treated diseased animals had histopathology changes, consistent with those seen in type II collagen induced arthritis, in most joints, with scores ranging from normal to severe. Microscopic alteration included infiltration of synovium and periarticular tissue with neutrophils and mononuclear inflammatory cells (inflammation), marginal zone pannus and bone resorption and cartilage damage (proteoglycan loss, chondrocyte death and collagen matrix destruction). Four-paw, knee and joint parameters were assigned a quantitative score 0=normal, 1=minimal, 2=mild, 3=moderate, 4=marked, 5=severe and a total score was determined per animal."}, "[4]": {"assay": "CIA EE vs. TG (Example 2): serum phospholipid fatty acid levels by FAME analysis", "conditions": "2500 mg/kg PUFA", "method": "as §2, with “At day 45, joints were collected for histology and pathology. Placebo-treated diseased animals had histopathology changes, consistent with those seen in type II collagen induced arthritis, in most joints, with scores ranging from normal to severe. Microscopic alteration included infiltration of synovium and periarticular tissue with neutrophils and mononuclear inflammatory cells (inflammation), marginal zone pannus and bone resorption and cartilage damage (proteoglycan loss, chondrocyte death and collagen matrix destruction). Four-paw, knee and joint parameters were assigned a quantitative score 0=normal, 1=minimal, 2=mild, 3=moderate, 4=marked, 5=severe and a total score was determined per animal.” left out\nSerum phospholipid fatty acid levels were determined by FAME analysis (FIG. 11). […]"}},
  "note": "At least one structure is not confirmed: it was looked up by name or label, or the drawing left a doubt. Some of these results come from one statement about several compounds together.",
  "data": [
    {"smiles": "C[C@@H]1C[C@H]2[C@@H]3CCC4=CC(=O)C=C[C@]4(C)[C@@]3(F)[C@@H](O)C[C@]2(C)[C@@]1(O)C(=O)CO", "note": "[Dexamethasone, reference compound]", "values": [
      {"measurement": "knee histopathology parameters", "setting": "[1]", "result": "did not significantly improve"},
      {"measurement": "paw histopathology parameters (inflammation, pannus, cartilage damage, bone damage)", "setting": "[1]", "result": "significantly reduced"},
      {"measurement": "six-joint mean histopathology parameters", "setting": "[1]", "result": "significantly reduced"},
      {"measurement": "arthritis severity score as area under the curve (AUC)", "setting": "[2]", "result": "reducing arthritis severity to levels comparable to normal, non-diseased animals"},
      {"measurement": "paw histopathology parameters (inflammation, pannus, cartilage damage, bone damage)", "setting": "[3]", "result": "reduced"},
      {"measurement": "six-joint histopathology parameters", "setting": "[3]", "result": "significantly reduced towards normal"},
      {"measurement": "knee histopathology parameters", "setting": "[3]; vs monounsaturate (placebo) control", "result": "reduced"}
    ]},
    {"smiles": "CCCCC/C=C\\C/C=C\\C/C=C\\C/C=C\\C/C=C\\CCC(=O)OCC", "note": "[DPAn6-EE, reference compound]", "values": [
      {"measurement": "serum DPAn6 levels, elevation vs monounsaturated or OA-EE (placebo) control", "setting": "[4]", "result": "3-4 fold"}
    ]}
  ]
}
